Results deposited as PubChem BioAssay AID1259275 (Sanger Institute, 2017).
Aim: 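Kinome and custom colorectal gene library screened for lethal knock-downs and drug partners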 (primary screen). Cells: COLO320HSR human colorectal cancer cells. Reagent: siRNA pool against human genes. Challenge: anchor drug added one day after transfection: BYL719 at 1 µM, cetuximab at 5 µg/ml or trametinib at 10 nM; DMSO as vehicle arm. Read-out: 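Viability averaged over replicates as a fraction of the non-targeting pool, a robust z-score for knock-down alone, and synergy scores with BYL719 (1 µM), cetuximab (5 µg/ml) or trametinib (10 nM)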. Scale: robust z-score, siRNA alone: higher = more viable cells; strongly negative means essential. Active means: 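a gene is called essential when its robust z-score without drug falls below -3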. Calls: active = essential (siRNA alone); inactive = no change (siRNA alone).
Shown is an unselected part of 794 reagents. Of all reagents, 13 (1.6%) are marked active. 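Calls mark knock-downs lethal by themselves, not drug synergy; drugs went in a day after transfection, with DMSO as vehicle.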 Further read-outs or replicates are left out here. Not stated in the record: the amount of reagent, the time to read-out.

NUCKS1 [SID152150801]
- robust z-score, siRNA alone: 0.24
- Outcome: inactive

MAP3K10 [SID56478692]
- robust z-score, siRNA alone: 0.726
- Outcome: inactive

MAP4K4 [SID56478747]
- robust z-score, siRNA alone: 0.726
- Outcome: inactive

PTPN11 [SID134310183]
- robust z-score, siRNA alone: -0.215
- Outcome: inactive

TNIK [SID152153870]
- robust z-score, siRNA alone: -0.873
- Outcome: inactive

BMPR1A [SID135620910]
- robust z-score, siRNA alone: 0.726
- Outcome: inactive

WNK3 [SID152156066]
- robust z-score, siRNA alone: 0.726
- Outcome: inactive

ADGRL2 [SID152152166]
- robust z-score, siRNA alone: 0.726
- Outcome: inactive

TTBK1 [SID135620866]
- robust z-score, siRNA alone: -0.518
- Outcome: inactive

AK4 [SID152149659]
- robust z-score, siRNA alone: 0.709
- Outcome: inactive

CDK17 [SID56478886]
- robust z-score, siRNA alone: 0.726
- Outcome: inactive

TEK [SID152152932]
- robust z-score, siRNA alone: -0.3
- Outcome: inactive

STK35 [SID135620978]
- robust z-score, siRNA alone: 0.726
- Outcome: inactive

AAK1 [SID152151067]
- robust z-score, siRNA alone: -1.37
- Outcome: inactive

PIK3R3 [SID56479284]
- robust z-score, siRNA alone: 0.402
- Outcome: inactive

EPHA5 [SID152153658]
- robust z-score, siRNA alone: -0.0719
- Outcome: inactive

WIPF1 [SID152149422]
- robust z-score, siRNA alone: -1.97
- Outcome: inactive

CPNE3 [SID134315878]
- robust z-score, siRNA alone: -0.368
- Outcome: inactive

MYO3B [SID152152883]
- robust z-score, siRNA alone: 0.726
- Outcome: inactive

CIT [SID56478810]
- robust z-score, siRNA alone: 0.181
- Outcome: inactive

CLK3 [SID56478875]
- robust z-score, siRNA alone: 0.579
- Outcome: inactive

ULK4 [SID152148607]
- robust z-score, siRNA alone: 0.726
- Outcome: inactive

LMTK3 [SID152150242]
- robust z-score, siRNA alone: -2.65
- Outcome: inactive

STK11 [SID152153881]
- robust z-score, siRNA alone: -0.818
- Outcome: inactive

CSNK1D [SID56478658]
- robust z-score, siRNA alone: 0.38
- Outcome: inactive

MAPK11 [SID56478748]
- robust z-score, siRNA alone: 0.666
- Outcome: inactive

EFNB3 [SID134315611]
- robust z-score, siRNA alone: -0.454
- Outcome: inactive

EIF2AK2 [SID56478676]
- robust z-score, siRNA alone: 0.552
- Outcome: inactive

OBSCN [SID56479016]
- robust z-score, siRNA alone: 0.726
- Outcome: inactive

TNK1 [SID152152407]
- robust z-score, siRNA alone: 0.726
- Outcome: inactive

BRD3 [SID135620912]
- robust z-score, siRNA alone: -1.17
- Outcome: inactive

PCBP1 [SID134316528]
- robust z-score, siRNA alone: -0.375
- Outcome: inactive

MAP3K2 [SID135620706]
- robust z-score, siRNA alone: 0.726
- Outcome: inactive

CDKL2 [SID152156267]
- robust z-score, siRNA alone: -1.11
- Outcome: inactive

PRKAG2 [SID135621825]
- robust z-score, siRNA alone: 0.726
- Outcome: inactive

NME7 [SID56479121]
- robust z-score, siRNA alone: 0.586
- Outcome: inactive
